Test results taken from patent publication US20230381155A1, “TREATMENT OF BREAST CANCER USING COMBINATION THERAPIES COMPRISING GDC-9545 AND GDC-0077” (Genentech, Inc., priority 2021, published 2023).
At least one compound was matched to its structure with a doubt left.

Tested on: T-47D.ER.D538G cells
Assay: CyQUANT relative viability, T-47D.ER.D538G
Assay type: cell-based
Settings: 125 nM palbociclib with E2 withdrawal (−E2); 6 to 8 days

SMILES: CC(=O)c1c(C)c2cnc(Nc3ccc(N4CCNCC4)cn3)nc2n(C2CCCC2)c1=O [palbociclib, reference compound]
- anti-proliferative effect / relative viability: improved the anti-proliferative effect
